PubChem BioAssay AID1259405 | NCATS – 2018

Purpose: 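Knock-downs that lift recombinant protein yield in hamster ovary cells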 (primary screen)
Cells: Chinese hamster CHO-K1 ovary cells with stable secreted eGFP expression
Knock-down reagent: single siRNA against mouse genes, 0.8 pmol siRNA per well (2 µl of 400 nM stock)
Time to read-out: 3 days
Measurement: 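Percent of the per-plate non-targeting control median for intracellular GFP per well by laser scanning cytometry and for cell viability by ATP luminescence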
Scale: GFP, % of control: higher = more GFP per well, higher productivity; viability (ATP), % of control: higher = more viable cells (more ATP)
Call rule: 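Called active when intracellular GFP, relative to negative control, is at or above 120%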
Shown is a random part of about 50,000 deposited reagents. About 4,000 of all reagents (8%) count as active. 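Mouse siRNA library applied to hamster cells; one well for each siRNA.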 Entries without a mark were called inactive. The numbers tell different reagents against one gene apart.

For Col8a2 #1 the deposit lists GFP, % of control 66.6; viability (ATP), % of control 70.4. Silencing of Col8a2 #2 came out at: GFP, % of control 39.8; viability (ATP), % of control 46.7. After knock-down of Col8a2 #3, the record shows GFP, % of control 66.4; viability (ATP), % of control 71. After knock-down of Hes3 #1, the record shows GFP, % of control 88.4; viability (ATP), % of control 68.6. Depletion of Hes3 #2 came out at: GFP, % of control 80.5; viability (ATP), % of control 55.4. Hes3 #3 scored GFP, % of control 80.9; viability (ATP), % of control 83.3.

With knock-down of Nkain4 #1, the record shows GFP, % of control 51; viability (ATP), % of control 50.2. With knock-down of Nkain4 #2, the screen gave GFP, % of control 89.2; viability (ATP), % of control 102. After knock-down of Nkain4 #3, the screen gave GFP, % of control 216 (active); viability (ATP), % of control 167. Mug7-ps #1 scored GFP, % of control 99.2; viability (ATP), % of control 94.3. Depletion of Mug7-ps #2 gave: GFP, % of control 58.4; viability (ATP), % of control 57. For Mug7-ps #3, the entry reads GFP, % of control 105; viability (ATP), % of control 68.4.

Depletion of Clec1a #1 resulted in: GFP, % of control 39.6; viability (ATP), % of control 35.2. With knock-down of Clec1a #2 the results were GFP, % of control 51.2; viability (ATP), % of control 89.2. Clec1a #3 gave GFP, % of control 78.3; viability (ATP), % of control 92.4. For 9630028B13Rik #1 the deposit lists GFP, % of control 46.6; viability (ATP), % of control 56.8. With knock-down of 9630028B13Rik #2 the results were GFP, % of control 57.2; viability (ATP), % of control 62.5. For 9630028B13Rik #3, the values are GFP, % of control 73.6; viability (ATP), % of control 79.6.

For Or6d12 #1, the entry reads GFP, % of control 101; viability (ATP), % of control 74.7. For Or6d12 #2, the values are GFP, % of control 83.9; viability (ATP), % of control 89.7. Knock-down of Or6d12 #3 gave: GFP, % of control 81; viability (ATP), % of control 64.6. Silencing of Aqp12 #1 resulted in: GFP, % of control 69; viability (ATP), % of control 80.4. For Aqp12 #2, the values are GFP, % of control 103; viability (ATP), % of control 88.2. For Aqp12 #3 the deposit lists GFP, % of control 190 (active); viability (ATP), % of control 79.6.

Quoted from the entries so far, 3 entries:
Col8a2 #1 → GFP, % of control: 66.6; viability (ATP), % of control: 70.4
Col8a2 #2 → GFP, % of control: 39.8; viability (ATP), % of control: 46.7
Col8a2 #3 → GFP, % of control: 66.4; viability (ATP), % of control: 71

Further reagents follow.
With knock-down of Lonp2 #1, the record shows GFP, % of control 6.24; viability (ATP), % of control 17.8. Against Lonp2 #2, the values are GFP, % of control 51; viability (ATP), % of control 76.1. Knock-down of Lonp2 #3 came out at: GFP, % of control 90.4; viability (ATP), % of control 56.1. Knock-down of Or5g23 #1 resulted in: GFP, % of control 30.6; viability (ATP), % of control 42.8. Or5g23 #2 showed GFP, % of control 94; viability (ATP), % of control 79.1. Or5g23 #3 scored GFP, % of control 155 (active); viability (ATP), % of control 124.

Depletion of Ocm #1 gave: GFP, % of control 108; viability (ATP), % of control 94.7. After knock-down of Ocm #2 the results were GFP, % of control 45.1; viability (ATP), % of control 55.4. With knock-down of 9630013D21Rik #1, the screen gave GFP, % of control 71.8; viability (ATP), % of control 66.7. With knock-down of 9630013D21Rik #2, the screen gave GFP, % of control 218 (active); viability (ATP), % of control 55.9. 9630013D21Rik #3 showed GFP, % of control 76.1; viability (ATP), % of control 86. Eif1a #1 showed GFP, % of control 64; viability (ATP), % of control 101.

Depletion of Eif1a #2 gave: GFP, % of control 73.6; viability (ATP), % of control 91.6. With knock-down of Eif1a #3 the results were GFP, % of control 38.2; viability (ATP), % of control 68.3. After knock-down of Pla1a #1 the results were GFP, % of control 77.5; viability (ATP), % of control 64.9. With knock-down of Pla1a #2, the record shows GFP, % of control 96.3; viability (ATP), % of control 70. For Pla1a #3, the entry reads GFP, % of control 43.1; viability (ATP), % of control 36.8.
